Results are given in words; binding and its absence hold for the method and conditions named. Binding calls can cover weak binding; strength is not graded here.
target: T1, FZO-1 N-terminal portion (amino acids 1-617, containing both GTPase and heptad repeat 1 domains) (C. elegans) (UniProt Q23424); test: two-hybrid; large-scale yeast two-hybrid screen by Hybrigenics Services; bait FZO-1 amino acids 1-617 in a GAL4 vector; prey libraries from pooled polyA+ RNA of N2 C. elegans (mixed stage, normal or stressed, and dauer larvae); 264 million potential interactions examined
T1 sequence: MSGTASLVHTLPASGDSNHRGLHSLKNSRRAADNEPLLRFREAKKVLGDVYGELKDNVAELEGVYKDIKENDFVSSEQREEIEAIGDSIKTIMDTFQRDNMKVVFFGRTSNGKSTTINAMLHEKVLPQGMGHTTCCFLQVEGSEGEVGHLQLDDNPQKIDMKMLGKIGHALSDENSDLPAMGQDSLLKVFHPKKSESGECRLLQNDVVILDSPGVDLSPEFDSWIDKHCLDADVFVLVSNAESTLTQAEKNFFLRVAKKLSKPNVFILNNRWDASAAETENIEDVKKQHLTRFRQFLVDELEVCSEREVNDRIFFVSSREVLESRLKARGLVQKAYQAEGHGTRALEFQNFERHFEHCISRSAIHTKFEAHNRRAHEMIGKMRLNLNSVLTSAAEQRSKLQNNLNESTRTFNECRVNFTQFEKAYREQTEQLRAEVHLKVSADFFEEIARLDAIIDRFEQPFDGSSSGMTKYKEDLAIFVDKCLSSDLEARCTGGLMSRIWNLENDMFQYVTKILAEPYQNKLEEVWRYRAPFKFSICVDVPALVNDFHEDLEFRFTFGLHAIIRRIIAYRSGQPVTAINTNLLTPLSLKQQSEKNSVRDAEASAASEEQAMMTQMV

Substance | binding
AFD-1 (C. elegans) | binds
Y59A8B.10 isoform a (C. elegans) | binds
USP-5 (C. elegans) | binds
F08F8.9 isoform b (C. elegans) | binds
PKN-1 (C. elegans) | binds

Reference: article PMC9756088
